Source: PubChem BioAssay AID1347131 (National Center for Advancing Translational Sciences (NCATS), 2019)
Hit rate of the full screen: of about 410,000 compounds, about 2,000 (0.49%) were called active. Inconclusive means that the source gave no clear call. Such entries were picked first, then a sample of the others. Calls come from the whole dose curve; tested in HEK293 reporter line. Potencies of inconclusive entries are doubtful fits and often do not repeat.

Assay: qHTS Assay for Foot and Mouth Disease Virus Antivirals: Primary Screen against the MLPCN compound library; note: nearly all actives have a fitted effect of over 55% in size
Settings: FMDV antiviral cell-based qHTS; activity, negative = inhibition: at 57.9 µM (top of the series)
Potency is the fitted concentration of half-maximal effect.

Compound	Potency	activity, negative = inhibition
COc1ccccc1N(C(=O)c1ccncc1)c1nc(-c2ccc([N+](=O)[O-])cc2)cs1	inconclusive: 14.1 µM [inhibitor, partial curve]	–
CSC(SC)=C(C#N)C(=O)c1ccccc1	inconclusive: 15.8 µM [inhibitor, partial curve, poor fit]	–
Cc1ccccc1C(=O)N1CCN(c2ccc(NC(=O)c3cccc(OC(C)C)c3)cc2)CC1	inconclusive: 15.8 µM [inhibitor, partial curve, poor fit]	–
Cc1cccc2[nH]c3c(N4CCC5(CC4)OCCO5)ncnc3c12	inconclusive: 39.8 µM [inhibitor, single point]	–
O=[N+]([O-])C1C(c2ccccc2)C12c1ccccc1-c1ccccc12 (stereo unspecified)	inconclusive: 14.1 µM [inhibitor, partial curve, poor fit]	–
CC(=O)N(C)C1=C(N2CCOCC2)C(=O)c2ccccc2C1=O	inconclusive: 2.51 µM [inhibitor, partial curve, poor fit]	–
COc1ccc(N=C(C)C2C(=O)c3ccccc3C2=O)cc1	inconclusive: 35.5 µM [inhibitor, single point]	–
C=CCC[C@@H](Cc1ccc(F)cc1)C(=O)OC[C@@H](C)NC(=O)[C@@H](CC=C)CC(=O)N[C@H](CO)Cc1ccccc1	inconclusive: 39.8 µM [inhibitor, partial curve, poor fit]	–
O=C(N/N=C/c1ccccn1)c1cc(-c2ccccc2)nc2ccccc12	inconclusive: 15.8 µM [inhibitor, single point]	–
Cc1ccc(NC(=O)c2sc3nc(C)nc(N4CCN(c5ccccn5)CC4)c3c2C)c(C)c1	inconclusive: 11.2 µM [inhibitor, partial curve, poor fit]	–
FC(F)(F)c1cc(C(F)(F)F)c2ccc(Oc3ccccc3)nc2n1	inconclusive: 17.8 µM [inhibitor, single point]	–
N#C/C(=C\N1CCN(Cc2ccc3c(c2)OCO3)CC1)c1nc2ccccc2s1	inconclusive: 31.6 µM [inhibitor, single point]	–
O=C1C=CC(=O)c2c(O)c(CO)c(CO)c(O)c21	inconclusive: 35.5 µM [inhibitor, single point]	–
O=C1C(Cl)=C(NCCN2CCCCC2)C(=O)c2ccccc21	inconclusive: 39.8 µM [inhibitor, partial curve, poor fit]	–
CCc1nc2ccc(C(=O)Nc3cc(-c4ccccc4)ccc3OC)cn2c1N(C=O)CCC(C)C	–	inactive: -32.4%
O=C(NCCn1cc(SCc2ccc(F)cc2)c2ccccc21)c1ccccc1F	inconclusive: 28.2 µM [inhibitor, partial curve, poor fit]	–

Two of the compounds above, bar-delimited:
Compound | Potency | activity, negative = inhibition
O=[N+]([O-])C1C(c2ccccc2)C12c1ccccc1-c1ccccc12 (stereo unspecified) | inconclusive: 14.1 µM [inhibitor, partial curve, poor fit] | –
Cc1ccc(NC(=O)c2sc3nc(C)nc(N4CCN(c5ccccn5)CC4)c3c2C)c(C)c1 | inconclusive: 11.2 µM [inhibitor, partial curve, poor fit] | –
